Measurements reported in the supplement of paper PMC3334620.
The full ranking holds about 33,000 sequences; the median of “E-score (-0.5 to 0.5)” is about -8e-05, and the highest 2% start at about 0.23. Some of the results follow.

Biological target: T1, Nrg2 (UniProt P38082)
T1 sequence: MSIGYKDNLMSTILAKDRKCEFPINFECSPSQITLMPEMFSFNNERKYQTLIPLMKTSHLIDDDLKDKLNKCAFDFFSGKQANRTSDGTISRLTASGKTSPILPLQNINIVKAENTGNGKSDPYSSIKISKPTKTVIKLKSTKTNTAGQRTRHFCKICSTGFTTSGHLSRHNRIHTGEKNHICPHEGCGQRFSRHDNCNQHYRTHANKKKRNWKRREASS
Test: PBM E-score (8-mer binding enrichment) (E-score (-0.5 to 0.5)); higher = stronger / more preferred TF binding
Conditions: protein concentration: 100 nM; construct: GST-full length
How it was run: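 Each ungapped eight-base word and its reverse complement, pooled, received an E-score from the Universal PBM Analysis Suite. Underlying scans, normalised with masliner, recorded fluorescent anti-GST bound to GST-tagged yeast transcription factors. These were applied at about 100-200 nM to universal all-10-mer Agilent arrays double-stranded by primer extension.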

| Sequence | PBM E-score |
| --- | --- |
| TAATTCGA | 0.0602 |
| ATACTTAA | 0.215 |
| AATGCAAC | 0.127 |
| CTTTTGGC | 0.00456 |
| ATTTCAGC | -0.038 |
| CTGACATC | 0.106 |
| CAGTTTAA | -0.0382 |
| ACCTGGGA | 0.01 |
| GATTCATA | 0.176 |
| CAAAGAGG | 0.0966 |
| CAATAGCC | -0.0879 |
| CTAGGAGC | -0.0101 |
| AATCGACT | -0.0229 |
| CCTAGCAA | -0.0644 |
| ACGTGACT | -0.171 |
| TGGTTCAA | 0.103 |
| CCTCGCTC | 0.105 |
| GACACGAC | 0.0549 |
| AATGACTA | -0.0979 |
| AAGATGAT | 0.00994 |
| CGACCGCA | 0.101 |
| AGCTGTAG | 0.132 |
| ATGTGGGG | -0.0299 |
| GGTAGAAC | -0.102 |
| GCCCCCAA | -0.331 |

| Sequence | PBM E-score |
| --- | --- |
| ACATTGGT | -0.0379 |
| GAGGTGGC | -0.0836 |
| ACTATAAG | -0.126 |
| TGGATTAA | -0.0443 |
| GGCTTGCA | 0.0861 |
| CGCTGACA | 0.105 |
| AGCCGAAA | -0.0476 |
| CTCCCGTA | -0.203 |
| GTGCTAAC | -0.0203 |
| AATTTACC | -0.0279 |
| CTCCTATA | -0.335 |
| ATCATATA | 0.123 |
| CCACAATC | -0.0997 |
| AGTCCGGC | -0.0322 |
| GAACTGAA | 0.108 |
| TAAGGACA | -0.0222 |
| GCACTTAC | -0.166 |
| CGTGCCTC | -0.0432 |
| CAGGAAGA | -0.0595 |
| ACGTCTGA | -0.157 |
| ACATAGAG | -0.0997 |
| ACGGACCA | 0.179 |
| CTGACACC | -0.15 |
| ACAATGCT | -0.0767 |
| AGTCTACG | -0.204 |

| Sequence | PBM E-score |
| --- | --- |
| CAGGGTAG | 0.303 |
| AGCAACAC | 0.17 |
| GGTCCACC | -0.0817 |
| GTCCAGAC | -0.175 |
| AGCTATCA | 0.121 |
| CAGTGACC | 0.0395 |
| CCTGCAAA | 0.00862 |
| GCTACTGA | 0.0376 |
| GAAAGAAA | 0.281 |
| GTAGGGTA | 0.0976 |
| AACGGTAA | -0.148 |
| ACTCCCGA | -0.229 |
| TACAAGAA | 0.051 |
| GTAAGCAC | -0.187 |
| CTAGTCAC | -0.122 |
| CCGGGCTA | -0.199 |
| GTTGACAA | 0.0873 |
| CTGCCCAA | 0.0866 |
| CACAGGTG | -0.124 |
| ATACGTGC | -0.00522 |
| AACTACCC | 0.0912 |
| AAGGTAGA | -0.107 |
| AGATTTAA | 0.0464 |
| AATCGTAG | 0.206 |
| CGTCCCAC | -0.0209 |

| Sequence | PBM E-score |
| --- | --- |
| CTAAGGCA | -0.112 |
| ACACGCGC | -0.0162 |
| CTCGAATA | -0.116 |
| GAGTTGCA | 0.136 |
| ATGCACCG | -0.048 |
| AAAGAATT | 0.0546 |
| CCGCACAA | -0.00442 |
| GATGGGCA | 0.109 |
| TAATGCTA | 0.157 |
| ACAGTCCA | 0.0427 |
| CAAGTCAA | 0.0401 |
| ACAAGAGG | -0.043 |
| GGTTCCTA | -0.0986 |
| CCGCGGCA | 0.121 |
| AGCTTGAG | -0.139 |
| CAACCATG | 0.0391 |
| GTGGCTCA | -0.159 |
| ATCTCCAG | -0.0261 |
| CGTATGAG | -0.116 |
| ATCTGTGA | -0.0301 |
| AAAGCACC | -0.0744 |
| TAGTAGCA | 0.114 |
| AAAATCTG | 0.146 |
| CGCTTCCC | -0.108 |
| CGTAAGGA | -0.00216 |

Some of the entries so far, bar-delimited.
Sequence | PBM E-score
ACTCCCGA | -0.229
TACAAGAA | 0.051
GTAAGCAC | -0.187
CTAGTCAC | -0.122
CCGGGCTA | -0.199
GTTGACAA | 0.0873
CTGCCCAA | 0.0866
CACAGGTG | -0.124
ATACGTGC | -0.00522
AACTACCC | 0.0912
AAGGTAGA | -0.107
AGATTTAA | 0.0464
AATCGTAG | 0.206
CGTCCCAC | -0.0209
CTAAGGCA | -0.112
ACACGCGC | -0.0162
CTCGAATA | -0.116
GAGTTGCA | 0.136
ATGCACCG | -0.048
AAAGAATT | 0.0546
CCGCACAA | -0.00442
GATGGGCA | 0.109
TAATGCTA | 0.157
ACAGTCCA | 0.0427
CAAGTCAA | 0.0401
ACAAGAGG | -0.043
GGTTCCTA | -0.0986
CCGCGGCA | 0.121
AGCTTGAG | -0.139
CAACCATG | 0.0391
GTGGCTCA | -0.159
ATCTCCAG | -0.0261
CGTATGAG | -0.116
ATCTGTGA | -0.0301
AAAGCACC | -0.0744
TAGTAGCA | 0.114
AAAATCTG | 0.146

Copied from the list.
Under PBM E-score, CTGCCCAA is entered as 0.0866
Under PBM E-score, ATACGTGC is entered as -0.00522
Under PBM E-score, AGCTTGAG is entered as -0.139

More entries follow:

| Sequence | PBM E-score |
| --- | --- |
| AGTTCCAG | -0.155 |
| GTGACGTA | -0.0309 |
| AGAGTTCG | 0.147 |
| CCTCTCCC | -0.127 |
| ATCGATGA | -0.00663 |
| AGTGCCGC | -0.0723 |
| CCAGTCGC | -0.0486 |
| ACCTACGA | -0.0773 |
| CACTGATA | -0.015 |
| CCTCAGAA | -0.143 |
| CAGGCCTA | -0.0342 |
| GATGGGAA | -0.14 |
| CCTGAAGG | -0.0247 |
| GCACAAAC | 0.0641 |
| CCCCAACA | -0.0901 |
| AGGTTAAG | -0.0479 |
| CGCCCCGA | 0.172 |
| CTAGCGAA | -0.106 |
| AGATGAAA | 0.192 |
| CGGCCTAA | -0.0403 |
| GGCGAGCC | -0.0861 |
| CGGTAACG | -0.269 |
| CAGACGCA | 0.0813 |
| CATCGATC | 0.0165 |
| CGGTGGTC | -0.0693 |

| Sequence | PBM E-score |
| --- | --- |
| AGCCAGGA | -0.0522 |
| ACATTCAT | -0.0109 |
| ACCAGCAG | -0.0904 |
| CACTCTAC | 0.126 |
| TCAAACCA | 0.134 |
| ATCGGGCA | -0.0438 |
| TGCAACAA | 0.00649 |
| GGCTCACC | -0.235 |
| GTATTAGA | 0.121 |
| GCGGAGCC | 0.0843 |
| ATAAGATG | 0.163 |
| CATATGTC | -0.163 |
| ATACCACC | 0.151 |
| CATGCTAG | -0.00401 |
| GGTTCTAC | -0.112 |
| GTCGACTA | 0.221 |
| CTTGCTCC | -0.0721 |
| CTCTATCC | -0.18 |
| GCTCAAAA | 0.0307 |
| AATTCAAG | 0.0675 |
| ACTTGGGA | -0.317 |
| TTATTAAA | 0.196 |
| CTCATGCA | 0.031 |
| GGCATGCC | 0.156 |
| GATTGATA | 0.181 |

| Sequence | PBM E-score |
| --- | --- |
| AGATTCGA | 0.0269 |
| AAAGACCT | -0.156 |
| AGTAGCCA | -0.278 |
| ATTTTCTC | 0.106 |
| CTGATAGA | -0.122 |
| CATGCTGC | -0.0727 |
| AAGGAAAG | -0.137 |
| CCCTTATA | 0.148 |
| AACGGGGC | 0.0899 |
| CTCAAGTC | -0.145 |
| AAACGCCA | 0.203 |
| ATAGGACC | 0.0195 |
| AATATGGT | 0.197 |
| AACGTCAA | -0.0866 |
| CTTGTGAA | 0.0572 |
| AAGGTGCA | -0.0255 |
| CGTAGTCC | -0.192 |
| AATGTGGA | 0.0414 |
| CATTCAGG | -0.0109 |
| ACAGGCAA | 0.053 |
| GACGGGTA | -0.182 |
| CATAGGGC | -0.151 |
